Article PMC5443569
No constants are given. Whether binding was seen depends on the method and setting. In cells and extracts the contact can be indirect. Some binding calls cover weakened binding; strength is not graded here. Where a sequence is shown, tags or fusion partners need not be part of it.

Amino acid sequences for entries named in this document (tags omitted). A change or cut given only in a name is not applied to a line headed by its entry.
UniProt P43360: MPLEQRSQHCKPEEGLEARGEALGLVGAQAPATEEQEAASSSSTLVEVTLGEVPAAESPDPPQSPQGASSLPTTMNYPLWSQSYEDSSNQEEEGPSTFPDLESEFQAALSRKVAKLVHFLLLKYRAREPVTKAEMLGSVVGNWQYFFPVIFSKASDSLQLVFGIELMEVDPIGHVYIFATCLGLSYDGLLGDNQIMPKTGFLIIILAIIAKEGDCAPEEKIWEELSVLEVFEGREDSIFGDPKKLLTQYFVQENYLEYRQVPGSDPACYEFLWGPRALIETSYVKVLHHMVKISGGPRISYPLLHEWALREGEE

Molecular target: T1, Flag-MageA11 (human) (UniProt P43364)
T1 sequence: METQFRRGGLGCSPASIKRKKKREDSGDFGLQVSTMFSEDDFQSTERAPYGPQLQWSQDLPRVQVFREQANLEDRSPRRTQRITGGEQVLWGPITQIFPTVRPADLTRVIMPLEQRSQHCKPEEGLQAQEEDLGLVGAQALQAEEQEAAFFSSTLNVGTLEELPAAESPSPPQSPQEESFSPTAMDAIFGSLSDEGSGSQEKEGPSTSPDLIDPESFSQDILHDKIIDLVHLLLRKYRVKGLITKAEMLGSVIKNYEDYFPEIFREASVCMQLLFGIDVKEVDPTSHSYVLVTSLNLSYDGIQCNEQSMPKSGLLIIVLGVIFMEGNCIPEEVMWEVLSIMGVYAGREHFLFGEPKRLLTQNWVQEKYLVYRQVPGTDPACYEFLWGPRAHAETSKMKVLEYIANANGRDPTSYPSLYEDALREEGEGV
Test: co-IP; tagged proteins co-expressed in HEK293T cells; lysis buffer 50mM Tris-HCl pH 8.0, 150mM NaCl, 1% NP-40; IP with anti-FLAG M2 antibody and Protein A-Sepharose 3h at 4°C; Western blot with anti-tag antibodies; also seen in cells co-expressing HA-ubiquitin and treated with 10 μM MG132

binding	Substance
binds	GFP-MHD-MageA6 (from UniProt P43360 110-304) (domain or fragment)
binds	HA-MageA6 (from UniProt P43360 1-314)
